Laboratory results taken from paper PMC3032050, “LPS ligand and culture additives improve production of monomeric MD-1 and 2 in Pichia pastoris by decreasing aggregation and intermolecular disulfide bonding” (Protein Expression and Purification, 2011).
Results are given in words; binding and its absence hold for the method and conditions named. Some results given as binding are weak or reduced against the parent protein; the word gives no strength.

Tests used:
Conditions in all cases: remark: other sources report otherwise
[1] = target: T1, human MD-2 (myeloid differentiation factor 2) (human), Q9Y6Y9; assay: non-reducing SDS-PAGE with anti-His Western blot; culture supernatants of GS115 and KM71H cultures, induced without or with culture additives
T1 chain: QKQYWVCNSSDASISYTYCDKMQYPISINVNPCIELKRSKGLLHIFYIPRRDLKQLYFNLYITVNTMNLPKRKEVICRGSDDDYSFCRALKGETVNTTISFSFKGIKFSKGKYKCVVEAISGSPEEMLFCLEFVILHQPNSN

[2] = target: T1, human MD-2 (myeloid differentiation …); assay: non-reducing SDS-PAGE; gel-filtration peak fractions on a non-reducing Coomassie-stained SDS-PAGE gel; both purified
[3] = target: T1, human MD-2 (myeloid differentiation …); assay: SEC; nickel-purified protein on HiLoad 16/60 Superdex 200 in 50 mM sodium acetate, pH 5.0; without additive, or with the anti-aggregation additive (0.2 M MgSO4 for hMD-2) in culture medium and buffers; both purified

Measured: binding

B1: human MD-2 (myeloid differentiation factor 2), Q9Y6Y9 19-160 (natural protein)
chain: T1 chain
binds: all assays above
